Measured values reported in article PMC11821933.
Where a chain is given by its changes, count along the chain named. Results are given in words; binding and its absence hold for the method and conditions named. In cells and extracts the contact can be indirect. Some results given as binding are weak or reduced against the parent protein; the word gives no strength. Sequences can lack the tags named with a protein.

Sequences of proteins named here, by UniProt entry; tags and fusion partners are left off.
UniProt P9WI13: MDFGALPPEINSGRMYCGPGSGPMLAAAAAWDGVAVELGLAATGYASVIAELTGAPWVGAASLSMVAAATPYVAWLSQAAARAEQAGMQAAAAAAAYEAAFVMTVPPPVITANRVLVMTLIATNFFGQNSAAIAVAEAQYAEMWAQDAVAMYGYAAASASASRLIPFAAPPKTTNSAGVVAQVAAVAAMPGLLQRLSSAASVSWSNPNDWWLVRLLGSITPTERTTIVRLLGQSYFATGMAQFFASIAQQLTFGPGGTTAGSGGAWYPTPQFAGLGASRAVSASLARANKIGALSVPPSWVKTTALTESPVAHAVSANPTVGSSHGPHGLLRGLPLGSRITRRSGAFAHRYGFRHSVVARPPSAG
UniProt Q79FK4: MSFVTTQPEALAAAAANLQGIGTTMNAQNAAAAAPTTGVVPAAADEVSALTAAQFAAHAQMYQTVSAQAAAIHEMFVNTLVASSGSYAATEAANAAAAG
UniProt Q79FK5: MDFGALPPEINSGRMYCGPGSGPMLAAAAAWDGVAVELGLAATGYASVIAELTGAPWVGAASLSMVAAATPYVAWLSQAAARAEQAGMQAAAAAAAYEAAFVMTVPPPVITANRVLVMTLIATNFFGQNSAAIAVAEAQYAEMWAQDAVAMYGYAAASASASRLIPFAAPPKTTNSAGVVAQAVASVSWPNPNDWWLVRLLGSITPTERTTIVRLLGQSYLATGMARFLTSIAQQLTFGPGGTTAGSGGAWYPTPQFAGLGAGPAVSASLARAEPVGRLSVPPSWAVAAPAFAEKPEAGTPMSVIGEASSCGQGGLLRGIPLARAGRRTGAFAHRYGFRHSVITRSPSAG

Legend:
Assay in all cases: pull-down
[1] = target: T1, His-tagged PPE26 (Rv1789) of Mycobacterium tuberculosis (Mycobacterium tuberculosis), Q79FK6; conditions: remark: other sources report otherwise
T1 chain: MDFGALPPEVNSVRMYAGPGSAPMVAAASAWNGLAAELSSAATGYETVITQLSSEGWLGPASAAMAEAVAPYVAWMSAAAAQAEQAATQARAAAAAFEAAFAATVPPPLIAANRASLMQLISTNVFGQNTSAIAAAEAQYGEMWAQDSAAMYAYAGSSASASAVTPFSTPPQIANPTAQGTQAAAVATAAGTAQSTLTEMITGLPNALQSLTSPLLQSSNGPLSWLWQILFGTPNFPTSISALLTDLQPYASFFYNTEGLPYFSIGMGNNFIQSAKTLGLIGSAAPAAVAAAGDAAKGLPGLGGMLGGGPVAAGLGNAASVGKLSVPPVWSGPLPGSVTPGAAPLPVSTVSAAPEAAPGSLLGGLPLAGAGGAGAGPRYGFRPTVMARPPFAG

[2] = target: PE18 (Rv1788) of Mycobacterium tuberculosis, His-tagged and GST-tagged copies co-expressed (Mycobacterium tuberculosis) (UniProt L7N649)
[3] = target: His-tagged PPE25 (Rv1787) of Mycobacterium tuberculosis (Mycobacterium tuberculosis) (UniProt P9WI13)
[4] = target: PE19 (Rv1791) of Mycobacterium tuberculosis, His-tagged and GST-tagged copies co-expressed (Mycobacterium tuberculosis) (UniProt Q79FK4)
[5] = target: His-tagged PPE27 (Rv1790) of Mycobacterium tuberculosis (Mycobacterium tuberculosis) (UniProt Q79FK5)

B1: GST-tagged PE18 (Rv1788) of Mycobacterium tuberculosis, L7N649 1-99 (protein)
chain: MSFVTTQPEALAAAAGSLQGIGSALNAQNAAAATPTTGVVPAAADEVSALTAAQFAAHAQIYQAVSAQAAAIHEMFVNTLQMSSGSYAATEAANAAAAG
binding [1]: binds

B2: PE18 (Rv1788) of Mycobacterium tuberculosis, His-tagged and GST-tagged copies co-expressed (protein, UniProt L7N649 1-99)
chain: B1 chain
binding [2]: binds

B3: GST-tagged PE19 (Rv1791) of Mycobacterium tuberculosis (protein, UniProt Q79FK4 1-99)
chain: B1 chain with G16A, S17N, S23T, A24T, L25M, T34A, I61M, A64T, Q81V, M82A
binding [3]: binds

B4: PE19 (Rv1791) of Mycobacterium tuberculosis, His-tagged and GST-tagged copies co-expressed (protein, UniProt Q79FK4 1-99)
chain: B1 chain with G16A, S17N, S23T, A24T, L25M, T34A, I61M, A64T, Q81V, M82A
binding [4]: binds

B5: GST-tagged PE18 (Rv1788) of Mycobacterium tuberculosis (protein, UniProt L7N649 1-99)
chain: B1 chain
binding [5]: binds
